Data as given in PubChem BioAssay AID1508597 (Cure First, 2020).

- Test: 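Knock-downs altering ovarian cancer cell survival with or without PARP inhibitor rucaparib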 (primary screen)
- Cells: human ovarian carcinoma lines grown from tumours: OCI-P5x (papillary serous) and OCI-C5x (clear cell)
- Reagents: siRNA pool against human genes, 1.25 pmol siRNA per well
- Duration: 72 h or 96 h, depending on the cell culture
- Treatment: rucaparib 20 µM (about IC30) or vehicle, present until read-out
- Rucaparib or vehicle: Vehicle
- Cell line: OCI-P5x (serous)
- Detection: 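ATP luminescence measured at 72 or 96 h according to the culture, then normalised and expressed as percent viability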
- Direction: viability, normalised: higher = more viable cells remaining
- Rule for the call: 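a well counts as a hit if its normalised viability is under 80 percent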
- Calls: active = viability under 80%; inactive = viability 80% or more
Shown is a random part of the about 2,100 reagents, under one of the conditions tested. 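Calls flag viability under 80% in either arm, not effects specific to rucaparib; the reference for percent is not stated.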 A reagent listed more than once was tested more than once; the source does not tell the runs apart. Not stated in the record: the 100% reference.

TET2 (tet methylcytosine dioxygenase 2) [SID405526554], technical replicate 1 | viability, normalised (%) = 58.2; Call = active
TET2 (tet methylcytosine dioxygenase 2) [SID405526554], technical replicate 2 | viability, normalised (%) = 61; Call = active
TET2 (tet methylcytosine dioxygenase 2) [SID405526554], technical replicate 3 | viability, normalised (%) = 85; Call = inactive
TSSK1A (testis specific serine kinase 1A (pseudogene)) [SID405527751], technical replicate 1 | viability, normalised (%) = 92.3; Call = inactive
TSSK1A (testis specific serine kinase 1A (pseudogene)) [SID405527751], technical replicate 2 | viability, normalised (%) = 94.5; Call = inactive
TSSK1A (testis specific serine kinase 1A (pseudogene)) [SID405527751], technical replicate 3 | viability, normalised (%) = 89.5; Call = inactive
CACNA1G (calcium voltage-gated channel subunit alpha1 G) [SID405528268], technical replicate 1 | viability, normalised (%) = 86.9; Call = inactive
CACNA1G (calcium voltage-gated channel subunit alpha1 G) [SID405528268], technical replicate 2 | viability, normalised (%) = 89; Call = inactive
CACNA1G (calcium voltage-gated channel subunit alpha1 G) [SID405528268], technical replicate 3 | viability, normalised (%) = 75.3; Call = active
TREX1 (three prime repair exonuclease 1) [SID405528314], technical replicate 1 | viability, normalised (%) = 73.8; Call = active
TREX1 (three prime repair exonuclease 1) [SID405528314], technical replicate 2 | viability, normalised (%) = 88.5; Call = inactive
TREX1 (three prime repair exonuclease 1) [SID405528314], technical replicate 3 | viability, normalised (%) = 58.5; Call = active

Continued, starting with the last 4 of the part before.
CACNA1G (calcium voltage-gated channel subunit alpha1 G) [SID405528268], technical replicate 3 | viability, normalised (%) = 75.3; Call = active
TREX1 (three prime repair exonuclease 1) [SID405528314], technical replicate 1 | viability, normalised (%) = 73.8; Call = active
TREX1 (three prime repair exonuclease 1) [SID405528314], technical replicate 2 | viability, normalised (%) = 88.5; Call = inactive
TREX1 (three prime repair exonuclease 1) [SID405528314], technical replicate 3 | viability, normalised (%) = 58.5; Call = active
PLCB4 (phospholipase C beta 4) [SID405526708], technical replicate 1 | viability, normalised (%) = 70.3; Call = active
PLCB4 (phospholipase C beta 4) [SID405526708], technical replicate 2 | viability, normalised (%) = 89.1; Call = inactive
PLCB4 (phospholipase C beta 4) [SID405526708], technical replicate 3 | viability, normalised (%) = 83.4; Call = inactive
CTCFL (CCCTC-binding factor like) [SID405528153], technical replicate 1 | viability, normalised (%) = 43.1; Call = active
CTCFL (CCCTC-binding factor like) [SID405528153], technical replicate 2 | viability, normalised (%) = 46.7; Call = active
CTCFL (CCCTC-binding factor like) [SID405528153], technical replicate 3 | viability, normalised (%) = 54.8; Call = active
MAP3K8 (mitogen-activated protein kinase kinase kinase 8) [SID405527391], technical replicate 1 | viability, normalised (%) = 81.4; Call = inactive
MAP3K8 (mitogen-activated protein kinase kinase kinase 8) [SID405527391], technical replicate 2 | viability, normalised (%) = 64.6; Call = active
MAP3K8 (mitogen-activated protein kinase kinase kinase 8) [SID405527391], technical replicate 3 | viability, normalised (%) = 71.2; Call = active
CTBP1-DT (CTBP1 divergent transcript) [SID405526446], technical replicate 1 | viability, normalised (%) = 89.2; Call = inactive
CTBP1-DT (CTBP1 divergent transcript) [SID405526446], technical replicate 2 | viability, normalised (%) = 87.7; Call = inactive
CTBP1-DT (CTBP1 divergent transcript) [SID405526446], technical replicate 3 | viability, normalised (%) = 86.1; Call = inactive
DDX20 (DEAD-box helicase 20) [SID405528176], technical replicate 1 | viability, normalised (%) = 73.3; Call = active
DDX20 (DEAD-box helicase 20) [SID405528176], technical replicate 2 | viability, normalised (%) = 71.6; Call = active
DDX20 (DEAD-box helicase 20) [SID405528176], technical replicate 3 | viability, normalised (%) = 69.7; Call = active
TERT (telomerase reverse transcriptase) [SID405528446], technical replicate 1 | viability, normalised (%) = 71.9; Call = active
TERT (telomerase reverse transcriptase) [SID405528446], technical replicate 2 | viability, normalised (%) = 70.6; Call = active
TERT (telomerase reverse transcriptase) [SID405528446], technical replicate 3 | viability, normalised (%) = 65; Call = active
CAMK1G (calcium/calmodulin dependent protein kinase IG) [SID405526416], technical replicate 1 | viability, normalised (%) = 77.3; Call = active
CAMK1G (calcium/calmodulin dependent protein kinase IG) [SID405526416], technical replicate 1 | viability, normalised (%) = 77.4; Call = active
CAMK1G (calcium/calmodulin dependent protein kinase IG) [SID405526416], technical replicate 2 | viability, normalised (%) = 77.4; Call = active
CAMK1G (calcium/calmodulin dependent protein kinase IG) [SID405526416], technical replicate 2 | viability, normalised (%) = 68.2; Call = active
CAMK1G (calcium/calmodulin dependent protein kinase IG) [SID405526416], technical replicate 3 | viability, normalised (%) = 71; Call = active
CAMK1G (calcium/calmodulin dependent protein kinase IG) [SID405526416], technical replicate 3 | viability, normalised (%) = 94.1; Call = inactive
